Test results from patent publication US11571480B2 (priority 2015, dated 2023).
Some peptides are written in HELM: one residue between dots, names in brackets for other building blocks, links after the first $.

Assay: general procedure: Fmoc solid-phase peptide synthesis; Wang Resin (1.1 mmol/g); Fmoc-Arg(pbf)-Wang Resin 0.53 mmol/g; DIC/HOBt
Details: conjugation step; for final purity (method not given): HPLC

Substance	conjugation yield [%]	final purity (method not given) [%]
PEPTIDE1{[Pte].[gGlu].C.K.E.F.L.H.P.S.K.V.D.L.P.R}|CHEM1{[mcVCPABMMAE]}$PEPTIDE1,CHEM1,3:R3-1:R1$$$V2.0	85.02	99.2
PEPTIDE1{R.R.R.R.R.R.R.R.R.C.K.E.F.L.H.P.S.K.V.D.L.P.R}|CHEM1{[mcVCPABMMAE]}$PEPTIDE1,CHEM1,10:R3-1:R1$$$V2.0	81.34	98.7
